# Data from PubChem BioAssay AID1347076 (National Center for Advancing Translational Sciences (NCATS), 2019).
# The whole screen tested about 400,000 compounds, of which about 13,000 (3.2%) were called active. Inconclusive means that the source gave no clear call. Such entries were picked first, then a sample of the others. The call rests on the fitted dose curve; in most records, active means well fitted cell-killing curve with a large enough effect; inconclusive means small, poorly fitted or top-dose-only effect, or effect the other way; inactive means flat fitted curve, though single readings scatter. A potency beside an inconclusive call is a rough fit, not a confirmed value.
# Experiment: qHTS assay for MDR1-selective chemotherapeutics: Primary screen using the drug-selected MDR subline cells KB-V1; further: nearly all actives have a fitted effect of over 60% in size
# Conditions: KB-V1 MDR cells viability, CellTiter-Glo, 72 h; activity change, negative = cytotoxicity: at 46.1 µM (top of the series)
# In short: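 Potencies derive from concentration-effect curves fitted to normalized luminescence (CellTiter-Glo) of KB-V1 cells treated for 72 h at 37 degrees C in phenol-red-free DMEM containing 10% FBS.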
# On the % scale 0 is the no-effect control and ±100 the full control effect; potency means the concentration at half of the fitted maximal effect.
Structure (SMILES),Potency,"activity change, negative = cytotoxicity"
CN(C)CCNc1nccc(N2CCN(C)CC2)n1,inactive,
COc1ccc(C)cc1S(=O)(=O)N(C)CC(=O)N1CCC(C(N)=O)CC1,inactive,
O=c1cc(CO)occ1OCc1cccc(C(F)(F)F)c1,inactive,
Cc1cc2c(n1-c1ccc(Br)cc1)CC(C)(C)CC2=O,active: 25.9 µM,
COc1cc(OC)c(N(C)S(=O)(=O)c2cccc(C(=O)NC3=NCCS3)c2)cc1Cl,"inconclusive: 25.9 µM [cytotoxic, partial curve, poor fit]",
COc1ccccc1N(C)S(=O)(=O)c1ccc(C(=O)Nc2cc(OC)c(OC)c(OC)c2)cc1,"inconclusive: 20.6 µM [cytotoxic, partial curve, poor fit]",
Clc1ccccc1-c1nnc2sc(CCc3ccccc3)nn12,"inconclusive: 20.6 µM [cytotoxic, single point]",
CC1(C(=O)N2CCC(CC3CC(c4cccc(Br)c4)=NO3)(C(=O)NCC3CCCCC3)CC2)CC1 (centres undefined),inactive,
CCOC(=O)Cn1nnnc1C(C(C)C)N(Cc1cccs1)Cc1cc2cc(C)ccc2[nH]c1=O (centres undefined),active: 11.2 µM,
OCCCNc1nc(-c2ccc(Br)cc2)nnc1-c1ccc(Cl)cc1,"inconclusive: 8.2 µM [cytotoxic, partial curve]",
CCN(CC)c1ccc(NC(=O)C2CCN(S(=O)(=O)c3ccc4c(c3)oc(=O)n4C)CC2)c(C)c1,inactive,
COC(=O)c1sccc1NC(=O)COc1ccc(Cl)cc1Cl,"inconclusive: 5.17 µM [cytotoxic, full curve]",
Cc1ccc(C(=O)N2CCN(c3ncnc4c(C)csc34)CC2)cc1,"inconclusive: 9.2 µM [cytotoxic, partial curve]",
Cc1[nH]c(=S)sc1Cc1ccc(F)cc1,inactive,
CCN(CC)S(=O)(=O)c1cc(NC(=O)C2Cc3ccccc3C(=O)O2)ccc1C (centres undefined),inactive,
Cc1[nH]c(C)c(S(=O)(=O)NCCc2ccccc2)c1C(=O)N1CCCC1,"inconclusive: 20.6 µM [rising, single point]",
O=C(NCc1cccs1)c1cccc2c(-c3cccnc3)coc12,"inconclusive: 16.4 µM [cytotoxic, single point]",
Cc1ccc(CNC(=O)c2ccccc2CCc2ccccc2)cc1,"inconclusive: 3.66 µM [cytotoxic, full curve]",
COc1ccc(CN(C(=O)c2cc(=O)c3ccccc3o2)C2CCS(=O)(=O)C2)cc1OC (centres undefined),"inconclusive: 10.3 µM [rising, partial curve, poor fit]",
O=C(Nc1ccc([N+](=O)[O-])cc1)Nc1cnccn1,inactive,
CCOC(=O)C1=C(C)Nc2nnnn2C1c1ccc(OC)c(Br)c1 (centres undefined),inactive,
CCOC(=O)[C@H]1[C@H]2COc3ccc(Cl)cc3[C@@H]2N2C(=O)CNC(=O)[C@@]12C,"inconclusive: 29.1 µM [rising, single point]",
CC1=NOC(=O)/C1=C\c1ccc(-c2ccc(Cl)c(C(=O)O)c2)o1,"inconclusive: 18.4 µM [rising, single point]",

Structure (SMILES),Potency,"activity change, negative = cytotoxicity"
Cc1cccc(NC(=O)C(NS(=O)(=O)c2cccc3nsnc23)c2ccccc2)c1C (centres undefined),inactive,
CCCC(=O)Nc1ccc2c(c1)nc1n2CCN(CCOC)C1,inactive,
Fc1ccc(-n2c(-c3ccc4ccccc4n3)n[nH]c2=S)cc1,"inconclusive: 4.61 µM [rising, full curve, poor fit]",
COc1ccc(-c2csc(NC(=S)NC(=O)/C=C/c3ccco3)n2)cc1OC,active: 6.51 µM,
COCCn1nnnc1C(c1ccc(OC)cc1OC)N1CCN(c2ccccc2F)CC1 (centres undefined),"inconclusive: 8.2 µM [cytotoxic, partial curve]",
Cc1ccc(S(=O)(=O)N2CCCN(S(=O)(=O)c3ccc4c(c3)OCCO4)CC2)cc1,"inconclusive: 18.4 µM [cytotoxic, partial curve, poor fit]",
COc1ccc(-c2n(CC(=O)OC3CC(C)CCC3C(C)C)c3ccccc3[n+]2C)cc1 (centres undefined),,inconclusive: 137%
COc1cccc(NC(=S)N2CCC(C(=O)c3ccc(F)cc3)CC2)c1,inactive,
COc1ccccc1NC(C)C(=O)N/N=C/c1ccccc1OCc1cccc(Br)c1 (centres undefined),"inconclusive: 20.6 µM [cytotoxic, single point]",
O=C(COc1ccc(Br)cc1)N1CCN(c2ccccc2)CC1,,inconclusive: -44.3%
O=C(NCc1ccco1)c1ccc(S(=O)(=O)N2CCCc3ccccc32)cc1,"inconclusive: 20.6 µM [cytotoxic, single point]",
CCCCCCCCN1C(=O)[C@H](CC(=O)NCC23CC4CC(CC(C4)C2)C3)C[C@@]2(C(=O)OCC)CCC=C12,"inconclusive: 16.4 µM [cytotoxic, single point]",
N#Cc1cccc(NC(=O)c2cc(C3CCCCN3C(=O)c3ccccn3)on2)c1 (centres undefined),inactive,
COc1ccc(NC(=O)c2ccccc2SC)cc1OC,inactive,
Cc1ccc(OCCSCc2nnc(NC(=O)Nc3cccc(Cl)c3)s2)cc1,"inconclusive: 7.31 µM [cytotoxic, partial curve]",
CCOC(=O)c1ccc(N(CCC2CO2)S(=O)(=O)c2ccc(C)cc2)cc1 (centres undefined),active: 20.6 µM,
Cc1ccc(N(C)S(=O)(=O)c2cccc(C(=O)N(C)Cc3cnn(-c4ccccc4)c3)c2)cc1,active: 5.8 µM,
Cc1ccc(-c2nc(=S)c3c(n2CC2CCCO2)CC(C)(C)OC3)cc1 (centres undefined),"inconclusive: 20.6 µM [cytotoxic, single point]",
Cc1cccc(C)c1NC(=O)C(=O)NCC(c1cccnc1)N1CCc2ccccc21 (centres undefined),"inconclusive: 2.59 µM [cytotoxic, full curve]",
O=C1NC(=S)S/C1=C\c1cccc([N+](=O)[O-])c1,"inconclusive: 29.1 µM [cytotoxic, single point]",
O=C(Oc1nsnc1N1CCOCC1)N1CCCCC1,"inconclusive: 23.1 µM [cytotoxic, single point]",
CC1CCN(CCOc2cccc(Br)c2)CC1,inactive,
COc1ccc(CCNC(=O)c2cc(COc3c(F)cccc3F)on2)c(OC)c1,inactive,

# Whole records, looked up by structure:
# `COc1cccc(NC(=S)N2CCC(C(=O)c3ccc(F)cc3)CC2)c1` is entered as Potency: inactive
# `Cc1ccc(OCCSCc2nnc(NC(=O)Nc3cccc(Cl)c3)s2)cc1` is entered as Potency: inconclusive: 7.31 µM [cytotoxic, partial curve]
# `O=C1NC(=S)S/C1=C\c1cccc([N+](=O)[O-])c1` is entered as Potency: inconclusive: 29.1 µM [cytotoxic, single point]
# `CCOC(=O)c1ccc(N(CCC2CO2)S(=O)(=O)c2ccc(C)cc2)cc1` (centres undefined) is entered as Potency: active: 20.6 µM

# Next records.

Structure (SMILES),Potency,"activity change, negative = cytotoxicity"
COc1cccc(NC(=O)CN2C(=O)CC(c3ccco3)Sc3ccccc32)c1 (centres undefined),"inconclusive: 6.51 µM [cytotoxic, partial curve]",
CN(C)CCSc1nnc2sc3ccccc3n12,inactive,
O=C1C2C3C=CC(C4CC34)C2C(=O)N1/N=C/c1ccc(-c2ccc(Cl)cc2[N+](=O)[O-])o1 (centres undefined),"inconclusive: 29.1 µM [cytotoxic, single point]",
CCCCc1nc(SCC(=O)N2CCCCC2)c2c(=O)n(C)c(=O)n(C)c2n1,"inconclusive: 5.8 µM [cytotoxic, full curve]",
NS(=O)(=O)c1ccc(CCNC(=O)Nc2ccc(Cl)c(Cl)c2)cc1,inactive,
COc1ccc(NC(=O)Nc2ccc3c(c2)C(=O)N([C@H](C)CO)C[C@H](C)[C@@H](CN(C)C(=O)Nc2ccc(OC)cc2)O3)cc1,"inconclusive: 29.1 µM [rising, single point]",
CCN(CC)C(=O)CN1C(=O)COc2ccc(S(=O)(=O)N3CCOCC3)cc21,"inconclusive: 3.26 µM [rising, full curve]",
CCCCNC(=O)Nc1ccc2c(c1)N(C)C(=O)c1ccccc1S2,inactive,
CCOC(=O)c1c(-c2ccccc2)csc1NC(=O)c1cccc(N2C(=O)CCC2=O)c1,"inconclusive: 10.3 µM [cytotoxic, partial curve]",
CC1=C(C(N)=O)C(c2ccc(Cl)c(Cl)c2)n2ncnc2N1 (centres undefined),inactive,
CCN(CC)S(=O)(=O)c1cc([N+](=O)[O-])ccc1NNC(=O)Nc1ccc(Cl)c(Cl)c1,"inconclusive: 8.2 µM [cytotoxic, partial curve]",
O=C(Nc1ccc(C(=O)N2CCOCC2)cc1)c1cc(-c2cccnc2)nc2ccc(Br)cc12,inactive,
CCCCC(=O)NC(c1ccco1)c1cc(Cl)c2cccnc2c1O (centres undefined),"inconclusive: 1.46 µM [cytotoxic, full curve, poor fit]",
CCCCn1ccnc1C(=O)c1cccc(S(=O)(=O)N2c3ccccc3CC2C)c1 (centres undefined),"inconclusive: 32.6 µM [cytotoxic, single point]",
CC(C)OCCCn1c(-c2ccc(Br)cc2)c[nH]c1=S,"inconclusive: 29.1 µM [cytotoxic, single point]",
O=C(CSc1nc2c([nH]c3ccccc32)c(=O)n1-c1ccc(Cl)cc1)NC1CCCCC1,"inconclusive: 18.4 µM [cytotoxic, single point]",
COc1cc(C(=O)NCc2nnc(SCC(=O)NCCc3ccccc3)o2)cc(OC)c1OC,"inconclusive: 29.1 µM [rising, single point]",
CC(=O)[C@H]1CC[C@H]2[C@@H]3CC=C4C[C@@H](O)CC[C@]4(C)[C@H]3CC[C@]12C,"inconclusive: 20.6 µM [cytotoxic, partial curve, poor fit]",
COc1ccc(/C=N/Nc2cc(C)nc3ccc(OC)cc23)c(OC)c1,"inconclusive: 20.6 µM [cytotoxic, single point]",
O=[N+]([O-])c1ncccc1OCc1ccc(Cl)c(Cl)c1,"inconclusive: 29.1 µM [cytotoxic, single point]",
O=C(c1ccc(CNS(=O)(=O)c2ccccc2)cc1)N1CCN(Cc2ccccc2)CC1,active: 4.61 µM,
CCc1ccc(NC(=O)CSc2nc3cc(C(=O)OC)ccc3c(=O)n2CC2CCCO2)cc1 (centres undefined),"inconclusive: 5.01 µM [cytotoxic, partial curve, poor fit]",
O=C(Nc1c(-c2ccc3c(c2)OCO3)[nH][nH]c1=O)c1cccc(C(F)(F)F)c1,inactive,
